Results published in PubChem BioAssay AID2685 (National Center for Advancing Translational Sciences (NCATS), 2010).
Some of the results follow. Further columns of the screen follow, without active or inactive calls. Compounds called inactive in the main read-out are mostly missing here. Words in brackets tell the shape of the fitted curve; partial curves, single points and poor fits give uncertain potencies.

Assay: qHTS Assay for Lipid Storage Modulators in Drosophila S3 Cells;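 as to cell number change: cells counted by Cell Tracker Red CMTPX staining in the red channel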
Conditions: BODIPY lipid droplet fluorescence, 18-24 h; for cell number change: measured here: cell count max response, cells fed with added oleic acid
Summary of the method: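 Drosophila S3 cells loaded with oleic acid (400 uM, as added) and compounds at several concentrations; lipid droplets imaged by 488-nm laser-scanning cytometry, 500–530 nm intensity and object ratio to cell channel. Percent activity normalized to 20 uM Triacsin C.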

[1] = measured here: lipid fluorescence (Fed channel) AC50, cells fed with added oleic acid
[2] = measured here: cell number channel AC50, cells fed with added oleic acid

SMILES	cell number change [%]	AC50 [1]	AC50 [2]
O=C(CCc1ccccc1F)N1CCN(c2ccccc2)CC1	27.4	29.1 µM [falling, single point]	
CC1(C)CC2CC(C)(CN2S(=O)(=O)c2cccc(C(=O)OCC(N)=O)c2)C1 (stereo not drawn)	6.61	11.6 µM [falling, partial curve]	
CCOC(=O)C1=C(COC(=O)c2ccco2)NC(=O)NC1CC (stereo not drawn)	1.3	29.1 µM [falling, single point]	
CC(C)Cc1nc(SCC(=O)N2CCOCC2)c2c(=O)n(C)c(=O)n(C)c2n1	-28.2		
O=S(=O)(c1ccc(F)cc1)N1CCN(C(=S)NCCc2ccccc2)CC1	73.3		23.1 µM [rising, single point]
Nc1ccc(C(=O)OCC(=O)c2cccc([N+](=O)[O-])c2)cc1	127		16.4 µM [rising, partial curve]
O=C(OCCN1CCCC1=O)c1cc(F)c(F)c(F)c1F	-14.9	18.4 µM [falling, partial curve, poor fit]	
CCOC(=O)C1CCN(C(=O)C(C)N(c2ccc(Oc3ccccc3)cc2)S(C)(=O)=O)CC1 (stereo not drawn)	-36.2	29.1 µM [falling, single point]	20.6 µM [falling, single point]
Cc1cc(C)cc(OCC(=O)NCCc2nc3ccccc3[nH]2)c1	13.1		0.164 µM [rising, full curve, poor fit]
CC(=O)Nc1cccc(NC(=O)c2ccc(COc3ccccc3)cc2)c1	-18.1	6.51 µM [falling, single point]	
COc1cccc(CC2(CO)CCN(Cc3ccc4cccc(F)c4n3)CC2)c1	-9.08	0.00461 µM [rising, full curve, poor fit]	
O=C(CSc1nnc(Cc2cc(=O)[nH]c(=O)[nH]2)n1-c1ccc(F)cc1)N1CCCCC1	4.87		
CCN(C(=O)COC(=O)CNC(=O)c1ccc(C)cc1)c1c(N)n(Cc2ccccc2)c(=O)[nH]c1=O	-1.32	0.731 µM [falling, single point]	
C/C(=N\NC(=O)c1nnn(-c2nonc2N)c1COc1ccc(F)cc1)c1ccc(Cl)cc1		0.517 µM [rising, full curve]	
Cc1c(Cl)cccc1N1C(=O)CC(NNC(=O)c2cccs2)C1=O (stereo not drawn)	-5.86		
Cc1c(C)n2c(SCC(=O)N3CCCCC3)nnc2[nH]c1=O	-9.53	3.26 µM [falling, single point]	
CN1CCN(Cc2ccc(Sc3ccc(Cl)cc3)c([N+](=O)[O-])c2)CC1	17.1		1.84 µM [rising, single point]
Fc1ccccc1N=C1NN=C(c2ccccc2)CS1	18		
COc1ccc(/C=C/C(=O)NCC2COc3ccccc3O2)cc1OC (stereo not drawn)	-6.21		
O=C1CC(C(=O)Nc2ncccn2)C(c2ccccc2)O1 (stereo not drawn)			0.58 µM [rising, single point]
CC1CCN(c2ccc(-c3cccc(NC(=O)c4ccco4)c3)nn2)CC1	25	4.61 µM [rising, full curve]	

SMILES	cell number change [%]	AC50 [1]	AC50 [2]
Cc1cc(C=O)c(C)n1-c1ccc(NC2CCCC2)c([N+](=O)[O-])c1	-18.8	29.1 µM [falling, single point]	
NS(=O)(=O)c1ccc(CCNC(=O)c2ccc(CS(=O)(=O)c3ccc(Br)cc3)o2)cc1	5.27		
S=C(Nc1cccnc1)NC1CC2CCC1C2 (stereo not drawn)	16.8	29.1 µM [falling, single point]	2.91 µM [rising, single point]
CCCNC(=S)Nc1cccc(C(F)(F)F)c1	3.53		
O=C(NC1CSCC1OC(=O)c1ccccc1)c1ccccc1 (stereo not drawn)	6.5	14.6 µM [rising, single point]	
O=[N+]([O-])c1ccc(N2CCN(c3ccccn3)CC2)c(Cl)c1	-11.4	6.51 µM [rising, single point]	
CCS(=O)(=O)CCSc1nc2ccccc2s1	36.6	29.1 µM [rising, single point]	29.1 µM [rising, single point]
O=C(Nc1cccc(S(=O)(=O)N2CCCCC2)c1)c1cc2ccccc2o1	-13.4	9.2 µM [falling, partial curve]	
COc1ccc(CN=C2NC(=O)CC(C(=O)Nc3ccc(Cl)cc3)S2)cc1 (stereo not drawn)	-10.4		0.651 µM [rising, single point]
CCCCn1c(N)c(N(CC(C)C)C(=O)CCCn2c(=O)oc3ccccc32)c(=O)[nH]c1=O	-11.4		
COCCn1cnc2c1c(=O)n(Cc1c(F)cccc1Cl)c(=O)n2Cc1ccccc1	0.87		
COc1cc(C(=O)N/N=C/c2ccc(OC(=O)c3cccc(C)c3)c(OC)c2)ccc1O		29.1 µM [rising, single point]	
CCOC(=O)c1[nH]c2ccccc2c1N=C(C)N(CC)CC	6.66	29.1 µM [rising, single point]	
CC1(C(=O)OCC(=O)Nc2ncc(Cl)cc2Cl)CC1(Cl)Cl (stereo not drawn)	89.2		0.82 µM [falling, single point]
S=C(NC1CCCC1)NC1CCCC1	49.5		
O=C1N(CN2C(=O)C3(OCCO3)c3ccccc32)c2ccccc2C12OCCO2	2.29	2.06 µM [rising, full curve]	
COc1ccc(C(CNC(=O)C(C)c2ccc3cc(OC)ccc3c2)N(C)C)cc1 (stereo not drawn)		18.4 µM [rising, single point]	
CCOc1ccccc1CNC(=O)Cn1ccc2cc(S(=O)(=O)N3CCCC3)ccc21	-13.4	29.1 µM [rising, partial curve, poor fit]	
CCOc1cc(NC(=S)Nc2cccc(OC)c2)c(OCC)cc1NC(=O)C1CC1	14.4		
Cc1cc(NC(=O)c2cccc3c2C(=O)N(C2CCCCC2)C3)ccc1Br	30	0.651 µM [rising, partial curve, poor fit]	
Cc1cc2c(c(SCC(N)=O)n1)C(=O)OC2	-28.5	0.259 µM [falling, full curve]	0.411 µM [falling, full curve, poor fit]

A draw from above in order of formula weight, ascending:
SMILES	cell number change [%]	AC50 [1]	AC50 [2]
O=C(Nc1cccc(S(=O)(=O)N2CCCCC2)c1)c1cc2ccccc2o1	-13.4	9.2 µM [falling, partial curve]	
Cc1cc(NC(=O)c2cccc3c2C(=O)N(C2CCCCC2)C3)ccc1Br	30	0.651 µM [rising, partial curve, poor fit]	
NS(=O)(=O)c1ccc(CCNC(=O)c2ccc(CS(=O)(=O)c3ccc(Br)cc3)o2)cc1	5.27		
